From article doi:10.1101/2025.05.20.655083
These are yes or no findings as the source states them, for the method shown. Binding can be weak; no strength is given.

target: T1, BSB PyV-LTA;NLS peptide (Black Sea Bass polyomavirus large tumor antigen residues 660-683) (Black Sea Bass polyomavirus); test: fluorescence polarisation
T1 sequence (peptide, Ahx-FITC on the N-terminus): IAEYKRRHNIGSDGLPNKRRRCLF

Substance	binding
human importin α1 ΔIBB (domain or fragment)	binds
human importin α5 ΔIBB (domain or fragment)	binds
human importin α3 ΔIBB (domain or fragment)	binds
human importin α7 ΔIBB (domain or fragment)	binds

target: T1, BSB PyV-LTA;NLS peptide (Black Sea Bass polyomavirus large tumor antigen residues 660-683) (Black Sea Bass polyomavirus); test: native gel or EMSA

Substance	binding
human importin α1 ΔIBB (domain or fragment)	binds
human importin α5 ΔIBB (domain or fragment)	binds
human importin α3 ΔIBB (domain or fragment)	binds
human importin α7 ΔIBB (domain or fragment)	binds
